Data from publication PMC10575892.
No constants are given. Whether binding was seen depends on the method and setting. Some entries that bind do so weakly or less than the wild type. Tags and fused reporters may be left off the sequences shown.

The chains behind the UniProt entries cited, without tags or fusion partners.
UniProt Q12983: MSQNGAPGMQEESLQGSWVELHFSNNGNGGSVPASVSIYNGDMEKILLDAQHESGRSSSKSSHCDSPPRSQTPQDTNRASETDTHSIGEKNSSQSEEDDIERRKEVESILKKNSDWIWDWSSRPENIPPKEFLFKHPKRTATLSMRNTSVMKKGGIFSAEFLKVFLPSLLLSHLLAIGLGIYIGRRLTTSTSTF
UniProt O60238: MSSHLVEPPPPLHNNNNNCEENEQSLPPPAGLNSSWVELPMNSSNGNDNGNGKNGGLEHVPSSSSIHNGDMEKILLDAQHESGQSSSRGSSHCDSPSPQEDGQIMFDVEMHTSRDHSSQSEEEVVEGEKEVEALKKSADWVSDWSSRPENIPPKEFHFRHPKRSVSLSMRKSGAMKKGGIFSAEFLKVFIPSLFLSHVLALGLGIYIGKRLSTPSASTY

Columns and labels:
[1] = target: human BNIP3 (yeast two-hybrid fusion) (human) (UniProt Q12983); assay: two-hybrid; Matchmaker Gold Yeast Two-Hybrid System; baits in pGBKT7 (Y2H Gold), preys in pGADT7 (Y187), mated; spotted on SD-leu-trp and SD-leu-trp-his plates, 30 °C
[2] = target: human NIX (yeast two-hybrid fusion) (human) (UniProt O60238); assay: as above

B1: full length human PPTC7 (yeast two-hybrid fusion) (enzyme, UniProt Q8NI37 1-304)
chain: MFSVLSYGRLVARAVLGGLSQTDPRAGGGGGGDYGLVTAGCGFGKDFRKGLLKKGACYGDDACFVARHRSADVLGVADGVGGWRDYGVDPSQFSGTLMRTCERLVKEGRFVPSNPIGILTTSYCELLQNKVPLLGSSTACIVVLDRTSHRLHTANLGDSGFLVVRGGEVVHRSDEQQHYFNTPFQLSIAPPEAEGVVLSDSPDAADSTSFDVQLGDIILTATDGLFDNMPDYMILQELKKLKNSNYESIQQTARSIAEQAHELAYDPNYMSPFAQFACDNGLNVRGGKPDDITVLLSIVAEYTD
Q: How did the binding [1] turn out when B1 was run?
A: binds

Q: What about the binding [2] of the same binder?
A: binds
